A short description of the assay: qHTS Assay to Find Inhibitors of Chronic Active B-Cell Receptor Signaling. The note with it: ABC-DLBCL IkBa-CBG/CBR reporter, luminescence ratio (green luciferase fused to IkBa over red control in TMD8 lymphoma cells), 4 h. Put shortly: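 TMD8 ABC-DLBCL cells carrying doxycycline-inducible green luciferase fused to IkappaBalpha plus unfused red luciferase were exposed to compounds (up to 46 uM) for 4 hrs at 37C. Activity came from the overlap-corrected green/red luminescence ratio.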
In general terms: qHTS replaces the single test concentration by a dilution series.

Setting [1] is: measured here: CBR red luminescence, cell number.
[2] abbreviates: measured here: IkBa-CBG green luminescence.

The structures appear in SMILES notation. The list shows a part of the results. Further columns of the screen follow, without active or inactive calls. Compounds called inactive in the main read-out are mostly missing here. The note in brackets gives the kind of curve behind each potency; many fits are weak.

As a reminder, the AC50 is the midpoint of the concentration-response curve, whichever way the signal moves. For the compound `Nc1nnc(SCC(=O)Nc2ccc3c(c2)OCCO3)s1`, under setting [1], the AC50 was 1.84 µM [falling, full curve].

Regarding `O=C(O)C1CCCCC1C(=O)Nc1nc(-c2ccc(Cl)s2)cs1` (stereo not given), under setting [1], the AC50 was 14.1 µM [falling, partial curve, poor fit].

Turning to `CCC(C)(C)NC(=O)C(c1cccnc1)N(C(=O)c1csnn1)c1ccccc1` (stereo not given), under setting [1], the AC50 was 0.891 µM [falling, full curve, poor fit].

On to `COc1cc(NC(=O)c2cccs2)c(C(=O)OCC(=O)NC(=O)NC(C)(C)C)cc1OC`, for which the AC50 under setting [1] was 0.259 µM [falling, full curve, poor fit].

In the case of `O=c1c(Cl)cc(Cl)nn1-c1ccccc1`, under setting [1], the AC50 was 23.1 µM [falling, partial curve].

For the compound `Fc1ccccc1/C=N/Nc1nc2ccccc2o1`, the AC50 under setting [1] is 8.91 µM [falling, partial curve, poor fit].

On to `Cc1cc(NC(=O)COc2ccccc2)n(-c2ccccc2)n1`, for which the AC50 under setting [1] is 7.94 µM [falling, partial curve].

On to `COc1cc(CNc2ccc(N3CCN(C(C)=O)CC3)cc2)ccc1OCc1ccccc1`, for which the AC50 under setting [1] is 0.355 µM [rising, full curve, poor fit].

For the compound `NC(=O)CC(NC(=O)c1cccc(Br)c1)c1ccc(NC2CCCCCCCCCCC2)c([N+](=O)[O-])c1` (stereo not given), the AC50 under setting [1] was 0.1 µM [falling, full curve, poor fit].

Take `CC(C)(C)Nc1nc(-c2ccccn2)nc2ccccc12`: the concentration at half-maximal activity (AC50) under setting [1] was 12.6 µM [falling, partial curve, poor fit].

As to `NNC(=O)c1ccc(Cn2cc(Cl)cn2)o1`, the concentration at half-maximal activity (AC50) under setting [1] is 3.16 µM [falling, partial curve, poor fit].

On to `CC1=NN(c2ccc(C(=O)O)cc2)C(=O)/C1=C\c1ccc(OC(=O)c2cccs2)cc1`, for which the half-maximal activity concentration (AC50) under setting [1] is 1.12 µM [falling, full curve].

`O=Cc1c(-[n+]2ccccc2)nc([O-])n1-c1ccccc1`: the AC50 under setting [1] was 4.61 µM [rising, partial curve, poor fit].

`O=C(CSc1nnc(C2CC2)n1CC1CCCO1)Nc1cccc(Cl)c1` (stereo not given): the AC50 under setting [1] is 6.31 µM [rising, single point].

`C[C@@H]1C[C@H]2[C@@H]3C[C@H](F)C4=CC(=O)C=C[C@]4(C)[C@@]3(F)[C@@H](O)C[C@]2(C)[C@@]1(O)C(=O)COC(=O)C(C)(C)C`: the AC50 under setting [1] was 16.4 µM [rising, partial curve, poor fit].

For `O=C(O)CCCCc1nc2ccccc2s1`, under setting [1], the AC50 was 5.17 µM [rising, partial curve].

For `Cc1ccc(C)c(NS(=O)(=O)c2cc(Br)cnc2N)c1`, the AC50 under setting [1] is 15.8 µM [falling, partial curve, poor fit].

On to `COc1cccc(NC(=O)CN(C)C(=O)CC2CCCCC2)c1`, for which the AC50 under setting [1] is 5.17 µM [rising, partial curve, poor fit].

For the compound `O=[N+]([O-])c1ccc2nc(-c3ccc(Cl)cc3)[nH]c2c1`, the AC50 under setting [1] is 23.1 µM [falling, partial curve] and the AC50 under setting [2] was 25.9 µM [rising, partial curve, poor fit].

For the compound `CC12CCC(C(=O)NCc3ccccc3Cl)(C(Br)C1=O)C2(C)C` (stereo not given), the AC50 under setting [1] was 29.1 µM [rising, partial curve, poor fit].

Turning to `CC(=O)c1sc(NC(=O)c2cnc(Cl)c(Cl)c2)nc1C`, the AC50 under setting [1] was 4.47 µM [falling, full curve, poor fit].

On to `COCCCNCC(=O)Nc1sc(C)c(C)c1C(=O)OC`, for which the AC50 under setting [1] is 29.1 µM [falling, single point].

Regarding `Cn1c(=O)cc(OCCCC(=O)NCCC2=CCCCC2)c2ccccc21`, under setting [1], the AC50 is 5.01 µM [rising, full curve, poor fit].

Regarding `Cn1c2ccccc2c2cc(/C=N/NC(=O)c3ccc(N)cc3)ccc21`, the AC50 under setting [1] is 3.55 µM [falling, partial curve, poor fit].

For `CC(=O)[C@@H]1[C@@H]2C(=O)N(c3ccc(F)c(Cl)c3)C(=O)[C@@H]2C2c3ccccc3C=CN21` (stereo not given in full), the AC50 under setting [1] is 6.51 µM [falling, partial curve].

As for `O=C(N/N=C/c1cccc([N+](=O)[O-])c1)c1c[nH]c2ccccc12`, the AC50 under setting [1] is 1.26 µM [rising, partial curve].

For `Cc1nn(-c2ccccc2)c(/N=C/c2ccc(O)cc2)c1-c1ccccc1`, the AC50 under setting [1] was 29.1 µM [falling, single point].

As to `CCN1N=C(C)C=C(c2ccccc2)n2c1nc1ccccc12`, the AC50 under setting [2] is 7.08 µM [rising, partial curve, poor fit].

Turning to `O=C(NCCc1ccccc1)c1ccc2c(c1)N(Cc1ccccc1Cl)C(=O)c1ccccc1S2`, under setting [1], the AC50 was 0.562 µM [rising, full curve, poor fit].

Consider `O=C(COC(=O)C1(c2cccc(F)c2)CCCC1)NCc1ccc2c(c1)OCO2`, for which, under setting [1], the AC50 was 18.4 µM [falling, single point].

For the compound `COc1ccc(C2=CC3=C(Br)C(=O)C(C)(OC(=O)c4ccco4)C(=O)C3=CO2)cc1` (stereo not given), under setting [1], the AC50 is 7.08 µM [rising, partial curve, poor fit].

On to `Cc1ccc(C)c(NC(=O)CCN2CCc3ccccc3C2)c1`, for which, under setting [1], the AC50 is 20 µM [falling, single point].

In the case of `Clc1nssc1=Nc1nncs1`, the AC50 under setting [1] is 29.1 µM [rising, single point].

With `COc1c(OC(C)=O)ccc(/C=C/c2ccc3ccccc3n2)c1[N+](=O)[O-]`, the AC50 under setting [1] was 0.58 µM [rising, full curve].

As to `c1ccc(-c2c[n+]3c(n2-c2ccccc2)SCC3)cc1`, the AC50 under setting [1] is 0.562 µM [rising, full curve, poor fit].

Regarding `CC(C)CCC1(CCNC(C)c2cccs2)CCOC(C)(C)C1` (stereo not given), the AC50 under setting [1] was 3.55 µM [falling, partial curve, poor fit].

For `O=C(Nc1ccncc1)c1ccc2c(c1)C(=O)N(C1CCCCC1)C2=O`, the AC50 under setting [1] is 29.1 µM [rising, single point].

For the compound `CCOCCn1ccc2c(OCC(=O)Nc3ccccc3OC)cccc2c1=O`, the AC50 under setting [1] is 1.16 µM [falling, full curve].

For `CC(C)(C)C(=O)/C=c1\s/c(=C\c2ccc(-c3ccc([N+](=O)[O-])cc3)o2)c(=O)n1CC(=O)NC(N)=O`, the AC50 under setting [1] was 0.1 µM [rising, full curve, poor fit].
